For 8 molecules, binding results are on record in paper PMC12254500.

Protein sequences, listed by entry. Tags and fused reporters are not part of them.
UniProt Q9UHY1: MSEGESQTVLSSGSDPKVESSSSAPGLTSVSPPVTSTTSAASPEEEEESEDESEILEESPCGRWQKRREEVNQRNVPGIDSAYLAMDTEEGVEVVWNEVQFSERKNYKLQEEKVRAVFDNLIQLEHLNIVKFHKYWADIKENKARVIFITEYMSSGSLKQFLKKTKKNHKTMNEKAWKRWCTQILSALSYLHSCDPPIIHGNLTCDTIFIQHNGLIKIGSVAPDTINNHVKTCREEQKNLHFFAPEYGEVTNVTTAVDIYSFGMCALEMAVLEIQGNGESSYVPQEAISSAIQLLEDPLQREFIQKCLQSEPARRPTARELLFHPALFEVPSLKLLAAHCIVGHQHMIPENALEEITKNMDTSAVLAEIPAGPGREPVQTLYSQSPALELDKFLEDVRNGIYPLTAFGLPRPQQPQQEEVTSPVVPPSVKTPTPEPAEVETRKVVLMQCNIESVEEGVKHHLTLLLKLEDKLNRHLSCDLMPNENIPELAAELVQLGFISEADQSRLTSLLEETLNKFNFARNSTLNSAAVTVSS
UniProt Q9UN81: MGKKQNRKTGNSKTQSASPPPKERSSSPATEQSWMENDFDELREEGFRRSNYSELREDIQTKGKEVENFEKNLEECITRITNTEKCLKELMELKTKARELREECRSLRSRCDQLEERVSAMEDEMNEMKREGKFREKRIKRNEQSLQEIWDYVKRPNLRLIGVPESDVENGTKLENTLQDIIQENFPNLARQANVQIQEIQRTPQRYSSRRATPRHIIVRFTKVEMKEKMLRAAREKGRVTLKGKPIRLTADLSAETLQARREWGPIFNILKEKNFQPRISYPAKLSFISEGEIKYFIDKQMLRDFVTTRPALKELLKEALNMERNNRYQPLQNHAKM
UniProt Q13283: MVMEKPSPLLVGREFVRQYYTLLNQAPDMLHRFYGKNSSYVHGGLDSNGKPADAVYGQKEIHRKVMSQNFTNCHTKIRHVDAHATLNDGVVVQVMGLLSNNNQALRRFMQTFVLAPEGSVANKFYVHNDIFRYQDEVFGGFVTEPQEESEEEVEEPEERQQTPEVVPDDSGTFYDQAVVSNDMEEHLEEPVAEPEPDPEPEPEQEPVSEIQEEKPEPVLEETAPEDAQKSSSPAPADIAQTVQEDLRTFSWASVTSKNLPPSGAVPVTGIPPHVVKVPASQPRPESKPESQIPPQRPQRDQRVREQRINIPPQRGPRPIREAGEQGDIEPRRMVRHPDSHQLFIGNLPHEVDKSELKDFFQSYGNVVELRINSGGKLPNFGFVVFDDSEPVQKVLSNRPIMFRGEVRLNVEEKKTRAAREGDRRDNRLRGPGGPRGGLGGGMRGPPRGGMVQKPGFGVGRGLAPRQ
UniProt P67809: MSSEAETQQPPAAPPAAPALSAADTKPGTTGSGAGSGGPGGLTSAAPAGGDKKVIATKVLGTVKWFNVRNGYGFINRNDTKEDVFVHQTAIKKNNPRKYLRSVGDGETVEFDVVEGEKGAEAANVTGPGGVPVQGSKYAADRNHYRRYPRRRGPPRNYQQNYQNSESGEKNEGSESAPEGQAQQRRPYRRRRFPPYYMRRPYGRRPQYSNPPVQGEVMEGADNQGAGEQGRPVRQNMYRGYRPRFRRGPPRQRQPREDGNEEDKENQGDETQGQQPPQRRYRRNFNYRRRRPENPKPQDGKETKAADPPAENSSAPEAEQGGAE

No constants are given. Whether binding was seen depends on the method and setting. In cells and extracts the contact can be indirect. Some entries that bind do so weakly or less than the wild type. For some of these results: Sequences can lack the tags named with a protein.

Assay [1] concerns the target NRBP1 (construct of Supplementary Fig. 1c and 5a, not given) (human) (UniProt Q9UHY1). Nature of the assay: co-IP; Supplementary Fig. 1c; bait, tags and cells not shown.
The target of assay [2] is T1, NRBP2 (construct of Supplementary Fig. 1c and 5a, not given) (human) (UniProt Q9NSY0).
T1 sequence: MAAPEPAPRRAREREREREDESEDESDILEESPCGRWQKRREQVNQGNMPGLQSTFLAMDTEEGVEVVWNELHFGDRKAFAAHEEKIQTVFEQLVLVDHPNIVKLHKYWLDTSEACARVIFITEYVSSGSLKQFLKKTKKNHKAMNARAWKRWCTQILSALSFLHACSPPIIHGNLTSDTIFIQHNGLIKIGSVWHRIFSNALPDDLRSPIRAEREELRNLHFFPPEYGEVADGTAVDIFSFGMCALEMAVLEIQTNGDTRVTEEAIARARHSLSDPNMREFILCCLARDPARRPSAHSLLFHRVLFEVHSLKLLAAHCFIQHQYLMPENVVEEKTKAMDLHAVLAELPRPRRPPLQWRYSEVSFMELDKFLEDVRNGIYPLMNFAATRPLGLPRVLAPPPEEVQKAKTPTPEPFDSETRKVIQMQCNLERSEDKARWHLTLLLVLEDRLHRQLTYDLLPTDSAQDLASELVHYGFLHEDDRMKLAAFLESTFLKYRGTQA
The assay is described as above.

Assay [3] has as its target Myc-Flag-tagged NRBP1 (human) (UniProt Q9UHY1). Nature of the assay: co-IP; MCF-7 cells transfected with Myc-Flag-NRBP1 or Myc-Flag-NRBP2; lysate incubated with Flag antibody; endogenous ORF1p detected by Western blot.
Assay [4] has as its target T2, Myc-Flag-tagged NRBP2 (human) (UniProt Q9NSY0).
T2 sequence: T1 sequence
Described as above.

Assay [5] concerns the target Flag-tagged ORF1p (human) (UniProt Q9UN81). Nature of the assay: co-IP; HeLa cells; Flag-tagged ORF1p precipitated, NRBP1-Myc or NRBP2-Myc detected; CHAPS-based buffer; lysate treated with 50 U/mL RNasin or 40 ug/mL RNase A, binding with or without RNA.
The target in assay [6] is Flag-NRBP1 (full-length NRBP1) (human) (UniProt Q9UHY1). In words: co-IP; HEK293T cells; Flag antibody used to pull down Flag-NRBP1; co-precipitated NRBP1 or NRBP2 variants by blot; CHAPS-based buffer.

As for G3BP1 (from UniProt Q13283 1-466), the binding entry in assay [1] and in assay [2] was “binds” throughout.

In the case of “L1 open-reading frame 1 protein (ORF1p), endogenous (from UniProt Q9UN81 1-338)”, the binding result in assay [3] and in assay [4] was “binds” throughout. For the molecule NRBP1-Myc (from UniProt Q9UHY1 1-535), in assay [5], the binding entry was “binds”.

For the molecule YBX1 (from UniProt P67809 1-324), the binding entry in assay [1] and in assay [2] was “binds” each time.

B1: UPF1 (protein, UniProt Q92900 1-1129)
chain: MSVEAYGPSSQTLTFLDTEEAELLGADTQGSEFEFTDFTLPSQTQTPPGGPGGPGGGGAGGPGGAGAGAAAGQLDAQVGPEGILQNGAVDDSVAKTSQLLAELNFEEDEEDTYYTKDLPIHACSYCGIHDPACVVYCNTSKKWFCNGRGNTSGSHIVNHLVRAKCKEVTLHKDGPLGETVLECYNCGCRNVFLLGFIPAKADSVVVLLCRQPCASQSSLKDINWDSSQWQPLIQDRCFLSWLVKIPSEQEQLRARQITAQQINKLEELWKENPSATLEDLEKPGVDEEPQHVLLRYEDAYQYQNIFGPLVKLEADYDKKLKESQTQDNITVRWDLGLNKKRIAYFTLPKTDSGNEDLVIIWLRDMRLMQGDEICLRYKGDLAPLWKGIGHVIKVPDNYGDEIAIELRSSVGAPVEVTHNFQVDFVWKSTSFDRMQSALKTFAVDETSVSGYIYHKLLGHEVEDVIIKCQLPKRFTAQGLPDLNHSQVYAVKTVLQRPLSLIQGPPGTGKTVTSATIVYHLARQGNGPVLVCAPSNIAVDQLTEKIHQTGLKVVRLCAKSREAIDSPVSFLALHNQIRNMDSMPELQKLQQLKDETGELSSADEKRYRALKRTAERELLMNADVICCTCVGAGDPRLAKMQFRSILIDESTQATEPECMVPVVLGAKQLILVGDHCQLGPVVMCKKAAKAGLSQSLFERLVVLGIRPIRLQVQYRMHPALSAFPSNIFYEGSLQNGVTAADRVKKGFDFQWPQPDKPMFFYVTQGQEEIASSGTSYLNRTEAANVEKITTKLLKAGAKPDQIGIITPYEGQRSYLVQYMQFSGSLHTKLYQEVEIASVDAFQGREKDFIILSCVRANEHQGIGFLNDPRRLNVALTRARYGVIIVGNPKALSKQPLWNHLLNYYKEQKVLVEGPLNNLRESLMQFSKPRKLVNTINPGARFMTTAMYDAREAIIPGSVYDRSSQGRPSSMYFQTHDQIGMISAGPSHVAAMNIPIPFNLVMPPMPPPGYFGQANGPAAGRGTPKGKTGRGGRQKNRFGLPGPSQTNLPNSQASQDVASQPFSQGALTQGYISMSQPSQMSQPGLSQPELSQDSYLGDEFKSQIDVALSQDSTYQGERAYQHGGVTGLSQY
Take B1: the binding result in assay [1] and in assay [2] was “binds” each time.

B2: NRBP2-Myc (protein, UniProt Q9NSY0 1-501)
chain: T1 sequence
B2: in assay [5], the binding entry was “binds”.

B3: wild-type NRBP2 (full length), co-IP with NRBP1 (protein, UniProt Q9NSY0 1-501)
chain: T1 sequence
Consider B3, for which the binding result in assay [6] is given as “binds”.

B4: MOV10 (protein, UniProt Q9HCE1 1-1003)
chain: MPSKFSCRQLREAGQCFESFLVVRGLDMETDRERLRTIYNRDFKISFGTPAPGFSSMLYGMKIANLAYVTKTRVRFFRLDRWADVRFPEKRRMKLGSDISKHHKSLLAKIFYDRAEYLHGKHGVDVEVQGPHEARDGQLLIRLDLNRKEVLTLRLRNGGTQSVTLTHLFPLCRTPQFAFYNEDQELPCPLGPGECYELHVHCKTSFVGYFPATVLWELLGPGESGSEGAGTFYIARFLAAVAHSPLAAQLKPMTPFKRTRITGNPVVTNRIEEGERPDRAKGYDLELSMALGTYYPPPRLRQLLPMLLQGTSIFTAPKEIAEIKAQLETALKWRNYEVKLRLLLHLEELQMEHDIRHYDLESVPMTWDPVDQNPRLLTLEVPGVTESRPSVLRGDHLFALLSSETHQEDPITYKGFVHKVELDRVKLSFSMSLLSRFVDGLTFKVNFTFNRQPLRVQHRALELTGRWLLWPMLFPVAPRDVPLLPSDVKLKLYDRSLESNPEQLQAMRHIVTGTTRPAPYIIFGPPGTGKTVTLVEAIKQVVKHLPKAHILACAPSNSGADLLCQRLRVHLPSSIYRLLAPSRDIRMVPEDIKPCCNWDAKKGEYVFPAKKKLQEYRVLITTLITAGRLVSAQFPIDHFTHIFIDEAGHCMEPESLVAIAGLMEVKETGDPGGQLVLAGDPRQLGPVLRSPLTQKHGLGYSLLERLLTYNSLYKKGPDGYDPQFITKLLRNYRSHPTILDIPNQLYYEGELQACADVVDRERFCRWAGLPRQGFPIIFHGVMGKDEREGNSPSFFNPEEAATVTSYLKLLLAPSSKKGKARLSPRSVGVISPYRKQVEKIRYCITKLDRELRGLDDIKDLKVGSVEEFQGQERSVILISTVRSSQSFVQLDLDFNLGFLKNPKRFNVAVTRAKALLIIVGNPLLLGHDPDWKVFLEFCKENGGYTGCPFPAKLDLQQGQNLLQGLSKLSPSTSGPHSHDYLPQEREGEGGLSLQVEPEWRNEL
For the molecule B4, the binding entry in assay [1] and in assay [2] was “binds” in each case.
